Measured values from US20090117590A1, “Human calcium sensitive potassium channel beta3 subunit proteins, encoding nucleic acid and uses thereof” (priority 1999, published 2009).
Some results were stated once for a whole list of compounds, not compound by compound. Some compounds share one range, which may span the group rather than tell each member.

Test system: α subunit of a human calcium sensitive potassium channel (human Slowpoke α)
Assay: Electrophysiological analysis of β subunits co-expressed with the α subunit in Xenopus oocytes, inside-out patches
Type: cell-based
Conditions: at 80 mV with 30 μM intracellular Ca2+
Description: The voltage clamp protocol consisted of a pre-pulse to −160 mV (200 ms), followed by 20 mV depolarizing steps from −80 to +80 mV (500 ms); holding potential was −80 mV; internal Ca^2+ was 30 μM. […] FIG. 7B: Boltzmann equations were fit to normalized conductances for the records shown in 7A, which were calculated from peak currents and plotted as function of test potential. V1/2 values are: 20 mV (α subunit alone); −55 mV (α+β2 subunit); 45.36 mV (α+β3α subunit); 20 mV (α+β3c subunit). […] Inactivation rates and fractional inactivating current were calculated as described in Example 2.
The β2, β3a, β3b, β3c, and β3d subunits of the human calcium sensitive potassium channel have been expressed in Xenopus oocytes, both by themselves and in combination with an α subunit of a large-conductance calcium-sensitive potassium channel (maxi-K channel). […]
Electrophysiological analysis: cRNAs were synthesized in vitro from plasmids encoding human Slowpoke α or the β2, β3a, β3b, β3c, or β3d subunits and injected into Xenopus oocytes (1.5 ng/oocyte of α subunit RNA +/−β subunit RNA at 1, 5, or 10× molar excess). Calcium sensitive potassium currents were recorded in inside-out patches. […] Currents were recorded using an EPC-7 amplifier (HEKA). […] NPO-voltage relations were determined at 3, 10 and 30 μM bath calcium using two methods: (1) calculation of macroscopic conductance from peak or steady-state currents at test potentials (−80 to 80 mV), or (2) measurement or calculation of tail currents peaks (−80 mV) at test potentials. […] Maximal inactivation parameters (30 μM Ca^2+ and 80 mV) were calculated from current traces or averaged current traces. Inactivation rates were determined from single exponential fits. Fractional non-inactivating current was calculated as steady-state/peak current; fractional inactivating current was estimated as peak current minus steady-state current divided by peak current.

B1: β2: β2 subunit of human calcium sensitive potassium channel, amino acid sequence SEQ. ID. NO.:2 (protein, listed as Homo Sapiens)
chain: MFIWTSGRTSSSYRHDEKRNIYQKIRDHDLLDKRKTVTALKAGEDRAILLGLAMMVCSIMMYFLLGITLLRSYMQSVWTEESQCTLLNASITETFNCSFSCGPDCWKLSQYPCLQVYVNLTSSGEKLLLYHTEETIKINQKCSYIPKCGKNFEESMSLVNVVMENFRKYQHFSCYSDPEGNQKSVILTKLYSSNVLFHSLFWPTCMMAGGVAIVAMVKLTQYLSLLCERIQRINR
For B1, the “inactivation time constant τinact” value was 30 to 40 ms.

B2: β3a: β3a subunit of human calcium sensitive potassium channel, amino acid sequence SEQ. ID. NO.:4 (protein, listed as Homo Sapiens)
chain: MQPFSIPVQITLQGSRRRQGRTAFPASGKKRETDYSDGDPLDVHKRLPSSTGEDRAVMLGFAMMGFSVLMFFLLGTTILKPFMLSIQREESTCTAIHTDIMDDWLDCAFTCGVHCHGQGKYPCLQVFVNLSHPGQKALLHYNEEAVQINPKCFYTPKCHQDRSDLLNSALDIKEFFDHKNGTPFSCFYSPASQSEDVILIKKYDQMAIFHCLFWPSLTLLGGALIVGMVRLTQHLSLLCEKYSTVVRDEVGGKVPYIEQHQFKLCIMRRSKGRAEKS
B2 was tested, and the “inactivation time constant τinact” value was 30 to 40 ms.

B3: β3c: β3c subunit of human calcium sensitive potassium channel, amino acid sequence SEQ. ID. NO.:8 (protein)
chain: MFPLLYELTAVSPSPFPQRTAFPASGKKRETDYSDGDPLDVHKRLPSSTGEDRAVMLGFAMMGFSVLMFFLLGTTILKPFMLSIQREESTCTAIHTDIMDDWLDCAFTCGVHCHGQGKYPCLQVFVNLSHPGQKALLHYNEEAVQINPKCFYTPKCHQDRSDLLNSALDIKEFFDHKNGTPFSCFYSPASQSEDVILIKKYDQMAIFHCLFWPSLTLLGGALIVGMVRLTQHLSLLCEKYSTVVRDEVGGKVPYIEQHQFKLCIMRRSKGRAEKS
B3 was tested, and the “inactivation time constant τinact” value was 30 to 40 ms.
